Reference: PubChem BioAssay AID1347075 (National Center for Advancing Translational Sciences (NCATS), 2019)
Hit rate of the full screen: of about 400,000 compounds, about 5,500 (1.4%) were called active. This list was built around the results that the source calls inconclusive (neither active nor inactive); the mix of calls is not that of the screen. Calls come from the whole dose curve; as a rule, active = well fitted cell-killing curve with a large enough effect; inconclusive = small, poorly fitted or top-dose-only effect, or effect the other way; inactive = flat fitted curve, though single readings scatter. A potency beside an inconclusive call is a rough fit, not a confirmed value.

Assay: qHTS assay for MDR1-selective chemotherapeutics: Primary screen using the parental adenocarcinoma cell KB-3-1; note: nearly all actives have a fitted effect of over 60% in size
Conditions: KB-3-1 viability, CellTiter-Glo ATP luminescence, 72 h; activity change, negative = cytotoxic: at 46.1 µM (top of the series)
In short: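 Cytotoxicity measured as CellTiter-Glo luminescence after 72 h at 37 C. Compound titrations were pinned onto drug-naive KB-3-1 parental adenocarcinoma cells grown in DMEM with 10% FBS, and normalized data fitted to concentration-response curves.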
% is set by controls: 0 for no effect and ±100 for the full control effect; potency is the fitted concentration of half-maximal effect.

| Compound | Potency | activity change, negative = cytotoxic |
| --- | --- | --- |
| CCCN(C(=O)c1cn(CC(C)C)c(=O)c2cc(OC)c(OC)cc12)c1cccc(C)c1 | inactive |  |
| COc1cccc(-n2nnnc2SCC(=O)Nc2nc3c(s2)CCCC3)c1 | inactive |  |
| Cc1cc(OCc2cc(C(=O)N(C)C3CCOC3)no2)cc(C)c1Cl (stereo not given) | inconclusive: 23.1 µM [cytotoxic, partial curve, poor fit] |  |
| COc1ccc(NC(=O)CSc2cn[nH]n2)c(OC)c1 | inconclusive: 25.9 µM [rising, single point] |  |
| N#Cc1ccc(CN2CCN(C(=O)c3ccccc3)CC2)c(Cl)c1 | inactive |  |
| Cn1c(CCN2CCCCCC2)nc2cc(NC(=O)Nc3ccccc3)ccc21 | inconclusive: 18.4 µM [cytotoxic, single point] |  |
| Fc1ccc(N2CCN(c3ncnc4c3nc3n4CCCC3)CC2)cc1 | inconclusive: 5.17 µM [cytotoxic, partial curve] |  |
| O=S(=O)(c1ccc(=S)[nH]c1)N1CCOCC1 |  | inconclusive: -3.32% |
| Cn1nc(-c2ccc(OCC(=O)NCC3CCCO3)cc2)c2ccccc2c1=O (stereo not given) | inactive |  |
| O=C(NN=Cc1ccc(O)c(O)c1)c1ccccc1 | inactive |  |
| Nc1nc2ccc(Cl)cc2cc1C(=O)NCCc1c[nH]c2ccccc12 | active: 9.2 µM |  |
| N#C/C(=C/c1ccc(OCc2ccc(C(=O)O)cc2)cc1)C(=O)Nc1ccccc1 | inactive |  |
| COc1ccc([N+](=O)[O-])cc1NC(=O)c1ccc(N2C(=O)CCC2=O)cc1 | inactive |  |
| CCc1ccc(C2CC(=O)N(c3ccc(F)cc3)C3=C2C(=O)OC3)cc1 (stereo not given) | inconclusive: 29.1 µM [rising, single point] |  |
| COC(=O)c1ccc2nc(-c3ccc(Cl)cc3)c(Cc3cccc(Cl)c3)n2c1 | inconclusive: 20.6 µM [cytotoxic, single point] |  |
| CN(CC(=O)Nc1cc(S(=O)(=O)N2CCCC2)ccc1Cl)Cc1nc2ccccc2c(=O)[nH]1 | inactive |  |
| CCOC(=O)CNc1nc(C(C)(C)C)nc2c1nnn2Cc1ccccc1Cl | inconclusive: 14.6 µM [cytotoxic, partial curve, poor fit] |  |
| CCCCCCSc1ccc(-c2nc3ccc(C)cn3c2NCc2ccccc2)cc1 |  | inconclusive: -23% |
| Cc1cccc2cc(CN(Cc3ccccc3)C(=O)c3cccc(F)c3)c(Cl)nc12 | inactive |  |
| Cc1csc2c(SCC(=O)NNC(=O)C(Cl)Cl)ncnc12 | inactive |  |
| COc1ccc(-c2sc3ccc(N4CCOCC4)cc3c2C#CCCO)cc1 | inconclusive: 16.4 µM [cytotoxic, single point] |  |
| S=C(NCc1ccco1)Nc1ccc(Br)cc1Cl | inconclusive: 29.1 µM [cytotoxic, partial curve, poor fit] |  |
| COc1cc2c(c(OC)c1OC)-c1ccc(SC)c(=O)cc1C(NC(=O)C(F)(F)F)CC2 (stereo not given) | active: 0.0517 µM |  |

| Compound | Potency | activity change, negative = cytotoxic |
| --- | --- | --- |
| COc1ccc(OC)c(S(=O)(=O)N/N=C\c2c[nH]c3ccccc23)c1 | inconclusive: 20.6 µM [cytotoxic, single point] |  |
| CCOc1ccc(NC(=O)c2nc(S(=O)(=O)Cc3ccc(C)cc3)ncc2Cl)cc1 | inconclusive: 13 µM [cytotoxic, partial curve, poor fit] |  |
| COc1ccc(C2c3c(-c4ccc(F)cc4)n[nH]c3C(=O)N2c2ccccc2)cc1OC (stereo not given) | inconclusive: 29.1 µM [cytotoxic, single point] |  |
| O=C(Nc1ccccc1C(F)(F)F)c1ccccc1Br | inconclusive: 29.1 µM [rising, single point] |  |
| CCOc1ccc(CCNC(=O)c2cc3c(-c4ccccc4F)nn(C)c3s2)cc1OCC | inconclusive: 23.1 µM [cytotoxic, single point] |  |
| C[C@@]12C(=O)N(CCc3c[nH]c4ccccc34)CC(=O)N1[C@H]1c3ccccc3OC[C@@H]1[C@@H]2c1ccccc1 | inconclusive: 29.1 µM [cytotoxic, single point] |  |
| CN(C)c1ccc2c(c1)Sc1cc(N(C)C)ccc1N2C(=O)c1ccccc1 | inconclusive: 14.6 µM [cytotoxic, single point] |  |
| O=C(NCc1ccncc1)c1nc(-c2ccc(C(F)(F)F)cc2)no1 | inconclusive: 29.1 µM [cytotoxic, single point] |  |
| CCCCCCCCNCCS(=O)(=O)NCc1ccccc1OC | inactive |  |
| CN=c1scc(-c2cccs2)n1/N=C/c1ccc(O)c(O)c1O | inconclusive: 29.1 µM [cytotoxic, single point] |  |
| CCc1ccc(CCC(=O)Nc2ncc(Cc3ccccc3Cl)s2)o1 | inconclusive: 0.731 µM [cytotoxic, full curve, poor fit] |  |
| Cc1n[nH]c(C)c1N=Nc1cc(Cl)ccc1Cl | inconclusive: 20.6 µM [cytotoxic, single point] |  |
| Cc1ccccc1OCC(O)CN1CCN(C)CC1 (stereo not given) | inactive |  |
| CCCOc1cccc(C2c3c(oc4cc(C)c(C)cc4c3=O)C(=O)N2CCCN2CCOCC2)c1 (stereo not given) | inconclusive: 29.1 µM [cytotoxic, single point] |  |
| CCOC(=O)c1oc2ccc(S(=O)(=O)n3nc(-c4ccccc4)cc3N)cc2c1C | inconclusive: 18.4 µM [cytotoxic, single point] |  |
| CCn1cc(C(=O)N2CCN(c3ccccc3F)CC2)c(=O)c2ccc(C)nc21 | inactive |  |
| Cc1ccc(-c2n[nH]c3c2C(c2cccs2)N(c2ccc(Cl)cc2)C3=O)cc1 (stereo not given) | inconclusive: 29.1 µM [cytotoxic, single point] |  |
| Cc1ccc(C)c(C(=O)CSc2nc3cc(C(=O)NC4CCCC4)ccc3c(=O)n2CC2CCCO2)c1 (stereo not given) | inconclusive: 29.1 µM [cytotoxic, single point] |  |
| Cc1cc(C)nc(N2CCC(C(=O)N3CCN(c4cc(Cl)ccc4C)CC3)CC2)n1 | inconclusive: 29.1 µM [cytotoxic, single point] |  |
| COc1ccc(-c2cc(C(=O)OCC(=O)c3ccc(C)c([N+](=O)[O-])c3)c3ccccc3n2)cc1 | inactive |  |
| CC1CCN(S(=O)(=O)c2cn(CC(=O)Nc3ccc(F)cc3)c(=O)c3ccccc23)CC1 | inactive |  |
| Nc1ccc(CN2CCOCC2)cc1 | inactive |  |

Quoted at random: two entries already listed, in no set order.

| Compound | Potency | activity change, negative = cytotoxic |
| --- | --- | --- |
| COc1ccc(-c2cc(C(=O)OCC(=O)c3ccc(C)c([N+](=O)[O-])c3)c3ccccc3n2)cc1 | inactive |  |
| CCc1ccc(CCC(=O)Nc2ncc(Cc3ccccc3Cl)s2)o1 | inconclusive: 0.731 µM [cytotoxic, full curve, poor fit] |  |
